This is one part of the list.
Columns and labels:
Assay in all cases: glycan array binding signal (z-score within array); higher = stronger binding
Settings in all cases: glycan notation: IUPAC condensed, linker removed
[1] = biological target: Fuc(a1-3)[Gal3S(b1-4)]GlcNAc
How it was run: (§1)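 Glycan array binding is given as a within-array Z-score, which can be read as non-binding when negative. The arrays, 3228 of them, came from the Consortium for Functional Glycomics database and were retained only where the protein sequence was available. Z-scores were averaged across arrays of the same protein sequence at different concentrations or buffers and across linkers.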

[2] = biological target: Fuc(a1-3)[Gal3S(b1-4)]GlcNAc6S
How it was run: as §1

[3] = biological target: Fuc(a1-3)[GalNAc(b1-4)]GlcNAc
How it was run: as §1

[4] = biological target: Fuc(a1-3)[GalNAc(b1-4)]GlcNAc6S
How it was run: as §1

Fuc(a1-4)GlcNAc = biological target: Fuc(a1-4)GlcNAc
How it was run: as §1

Fuc(b1-3)GlcNAc = biological target: Fuc(b1-3)GlcNAc
How it was run: as §1

Gal(a1-2)Gal = biological target: Gal(a1-2)Gal
How it was run: as §1

Gal(a1-3)Gal = biological target: Gal(a1-3)Gal
How it was run: as §1

Gal(a1-3)Gal(b1-3)GlcNAc = biological target: Gal(a1-3)Gal(b1-3)GlcNAc
How it was run: as §1

[5] = biological target: Gal(a1-3)Gal(b1-3)GlcNAc(b1-2)Man
How it was run: as §1

[6] = biological target: Gal(a1-3)Gal(b1-3)GlcNAc(b1-2)Man(a1-3)[Gal(a1-3)Gal(b1-3)GlcNAc(b1-2)Man(a1-6)]Man(b1-4)GlcNAc(b1-4)GlcNAc
How it was run: as §1

[7] = biological target: Gal(a1-3)Gal(b1-3)GlcNAc(b1-3)GalNAc
How it was run: as §1

[8] = biological target: Gal(a1-3)Gal(b1-3)GlcNAc(b1-6)GalNAc
How it was run: as §1

[9] = biological target: Gal(a1-3)Gal(b1-3)[Fuc(a1-4)]GlcNAc(b1-2)Man(a1-3)[Gal(a1-3)Gal(b1-3)[Fuc(a1-4)]GlcNAc(b1-2)Man(a1-6)]Man(b1-4)GlcNAc(b1-4)GlcNAc
How it was run: as §1

Gal(a1-3)Gal(b1-4)Glc = biological target: Gal(a1-3)Gal(b1-4)Glc
How it was run: as §1

Gal(a1-3)Gal(b1-4)GlcNAc = biological target: Gal(a1-3)Gal(b1-4)GlcNAc
How it was run: as §1

[10] = biological target: Gal(a1-3)Gal(b1-4)GlcNAc(b1-2)Man
How it was run: as §1

[11] = biological target: Gal(a1-3)Gal(b1-4)GlcNAc(b1-2)Man(a1-3)[Gal(a1-3)Gal(b1-4)GlcNAc(b1-2)Man(a1-6)]Man(b1-4)GlcNAc(b1-4)GlcNAc
How it was run: as §1

[12] = biological target: Gal(a1-3)Gal(b1-4)GlcNAc(b1-3)GalNAc
How it was run: as §1

[13] = biological target: Gal(a1-3)Gal(b1-4)GlcNAc(b1-6)GalNAc
How it was run: as §1

[14] = biological target: Gal(a1-3)Gal(b1-4)[Fuc(a1-3)]GlcNAc
How it was run: as §1

[15] = biological target: Gal(a1-3)Gal(b1-4)[Fuc(a1-3)]GlcNAc(b1-2)Man(a1-3)[Gal(a1-3)Gal(b1-4)[Fuc(a1-3)]GlcNAc(b1-2)Man(a1-6)]Man(b1-4)GlcNAc(b1-4)GlcNAc
How it was run: as §1

Gal(a1-3)GalNAc = biological target: Gal(a1-3)GalNAc
How it was run: as §1

[16] = biological target: Gal(a1-3)[Gal(a1-4)]Gal(b1-4)GlcNAc
How it was run: as §1

[17] = biological target: Gal(a1-4)Gal(b1-3)GlcNAc(b1-2)Man(a1-3)[Gal(a1-4)Gal(b1-3)GlcNAc(b1-2)Man(a1-6)]Man(b1-4)GlcNAc(b1-4)GlcNAc
How it was run: as §1

Gal(a1-4)Gal(b1-4)Glc = biological target: Gal(a1-4)Gal(b1-4)Glc
How it was run: as §1

Gal(a1-4)Gal(b1-4)GlcNAc = biological target: Gal(a1-4)Gal(b1-4)GlcNAc
How it was run: as §1

[18] = biological target: Gal(a1-4)Gal(b1-4)GlcNAc(b1-2)Man(a1-3)[Gal(a1-4)Gal(b1-4)GlcNAc(b1-2)Man(a1-6)]Man(b1-4)GlcNAc(b1-4)GlcNAc
How it was run: as §1

[19] = biological target: Gal(a1-4)Gal(b1-4)GlcNAc(b1-3)Gal(b1-4)Glc
How it was run: as §1

Gal(a1-4)GlcNAc = biological target: Gal(a1-4)GlcNAc
How it was run: as §1

Gal(a1-6)Glc = biological target: Gal(a1-6)Glc
How it was run: as §1

Gal(b1-2)Gal = biological target: Gal(b1-2)Gal
How it was run: as §1

Gal(b1-3)Gal = biological target: Gal(b1-3)Gal
How it was run: as §1

Gal(b1-3)Gal(b1-4)GlcNAc = biological target: Gal(b1-3)Gal(b1-4)GlcNAc
How it was run: as §1

Gal(b1-3)GalNAc = biological target: Gal(b1-3)GalNAc
How it was run: as §1

[20] = biological target: Gal(b1-3)GalNAc(a1-3)[Fuc(a1-2)]Gal(b1-4)Glc
How it was run: as §1

[21] = biological target: Gal(b1-3)GalNAc(a1-3)[Fuc(a1-2)]Gal(b1-4)GlcNAc
How it was run: as §1

Gal(b1-3)GalNAc(b1-3)Gal = biological target: Gal(b1-3)GalNAc(b1-3)Gal
How it was run: as §1

[22] = biological target: Gal(b1-3)GalNAc(b1-3)Gal(a1-4)Gal(b1-4)Glc
How it was run: as §1

[23] = biological target: Gal(b1-3)GalNAc(b1-4)Gal(b1-4)Glc
How it was run: as §1

[24] = biological target: Gal(b1-3)GalNAc(b1-4)[Neu5Ac(a2-3)]Gal(b1-4)Glc
How it was run: as §1

Gal(b1-3)GlcNAc = biological target: Gal(b1-3)GlcNAc
How it was run: as §1

[25] = biological target: Gal(b1-3)GlcNAc(a1-3)Gal(b1-4)GlcNAc
How it was run: as §1

[26] = biological target: Gal(b1-3)GlcNAc(a1-6)Gal(b1-4)GlcNAc
How it was run: as §1

Gal(b1-3)GlcNAc(b1-2)Man = biological target: Gal(b1-3)GlcNAc(b1-2)Man
How it was run: as §1

B1: Ovorubin (Pomacea canaliculata), J7I2T6 (protein)
chain: MFVATSLLLAIATLVVRASPHNYLIMDIEPPKSVSERDILNLLSPLQVKHSFRVTGSTRLLIVIRLDAQSYEKLDEITVPGKVEVIPAVNMADTMERCGVSWPRVELTDDNVTLFESESTLTDVTKEQLKAMLIGYGEHMSGLLQAHRFEYYQAAGATPHRHFVFVNSVPDEIEVFGREGVDIWGGPGEFVVKPQYVTRI
For B1, the “glycan array binding signal (z-score)” value [1] was -0.035, the “glycan array binding signal (z-score)” value [2] was 1.17 and the “glycan array binding signal (z-score)” value [3] was 1.12. For the same binder, the “glycan array binding signal (z-score)” value [4] was 0.872, the “glycan array binding signal (z-score)” value (Fuc(a1-4)GlcNAc) was -0.916 and the “glycan array binding signal (z-score)” value (Fuc(b1-3)GlcNAc) was -0.519. For the same binder, the “glycan array binding signal (z-score)” value (Gal(a1-2)Gal) was -0.308, the “glycan array binding signal (z-score)” value (Gal(a1-3)Gal) was -0.576 and the “glycan array binding signal (z-score)” value (Gal(a1-3)Gal(b1-3)GlcNAc) was -0.369. The “glycan array binding signal (z-score)” value [5] was -1.05, the “glycan array binding signal (z-score)” value [6] was 0.869 and the “glycan array binding signal (z-score)” value [7] was -0.803. The “glycan array binding signal (z-score)” value [8] was 0.354, the “glycan array binding signal (z-score)” value [9] was 0.574 and the “glycan array binding signal (z-score)” value (Gal(a1-3)Gal(b1-4)Glc) was -0.393. The “glycan array binding signal (z-score)” value (Gal(a1-3)Gal(b1-4)GlcNAc) was -0.277, the “glycan array binding signal (z-score)” value [10] was -0.079 and the “glycan array binding signal (z-score)” value [11] was 0.572. For the same binder, the “glycan array binding signal (z-score)” value [12] was 0.15, the “glycan array binding signal (z-score)” value [13] was -0.032 and the “glycan array binding signal (z-score)” value [14] was 0.092. The “glycan array binding signal (z-score)” value [15] was 2.17, the “glycan array binding signal (z-score)” value (Gal(a1-3)GalNAc) was -0.618 and the “glycan array binding signal (z-score)” value [16] was 7.96. For the same binder, the “glycan array binding signal (z-score)” value [17] was 0.824, the “glycan array binding signal (z-score)” value (Gal(a1-4)Gal(b1-4)Glc) was -0.529 and the “glycan array binding signal (z-score)” value (Gal(a1-4)Gal(b1-4)GlcNAc) was -0.088. For the same binder, the “glycan array binding signal (z-score)” value [18] was 0.195, the “glycan array binding signal (z-score)” value [19] was -0.943 and the “glycan array binding signal (z-score)” value (Gal(a1-4)GlcNAc) was -0.604. For the same binder, the “glycan array binding signal (z-score)” value (Gal(a1-6)Glc) was -1.13, the “glycan array binding signal (z-score)” value (Gal(b1-2)Gal) was 0.362 and the “glycan array binding signal (z-score)” value (Gal(b1-3)Gal) was -0.461. For the same binder, the “glycan array binding signal (z-score)” value (Gal(b1-3)Gal(b1-4)GlcNAc) was -0.18, the “glycan array binding signal (z-score)” value (Gal(b1-3)GalNAc) was -0.338 and the “glycan array binding signal (z-score)” value [20] was -0.022. The “glycan array binding signal (z-score)” value [21] was 0.084, the “glycan array binding signal (z-score)” value (Gal(b1-3)GalNAc(b1-3)Gal) was -0.065 and the “glycan array binding signal (z-score)” value [22] was 0.16. The “glycan array binding signal (z-score)” value [23] was -0.385, the “glycan array binding signal (z-score)” value [24] was -0.416 and the “glycan array binding signal (z-score)” value (Gal(b1-3)GlcNAc) was -0.445. For the same binder, the “glycan array binding signal (z-score)” value [25] was -0.605, the “glycan array binding signal (z-score)” value [26] was -0.428 and the “glycan array binding signal (z-score)” value (Gal(b1-3)GlcNAc(b1-2)Man) was -0.988.

Reference: the supplement of paper PMC8728848
